The record followed here is paper PMC5855093.

Amino acid sequences for entries named in this document (tags omitted).
UniProt Q6GQD1: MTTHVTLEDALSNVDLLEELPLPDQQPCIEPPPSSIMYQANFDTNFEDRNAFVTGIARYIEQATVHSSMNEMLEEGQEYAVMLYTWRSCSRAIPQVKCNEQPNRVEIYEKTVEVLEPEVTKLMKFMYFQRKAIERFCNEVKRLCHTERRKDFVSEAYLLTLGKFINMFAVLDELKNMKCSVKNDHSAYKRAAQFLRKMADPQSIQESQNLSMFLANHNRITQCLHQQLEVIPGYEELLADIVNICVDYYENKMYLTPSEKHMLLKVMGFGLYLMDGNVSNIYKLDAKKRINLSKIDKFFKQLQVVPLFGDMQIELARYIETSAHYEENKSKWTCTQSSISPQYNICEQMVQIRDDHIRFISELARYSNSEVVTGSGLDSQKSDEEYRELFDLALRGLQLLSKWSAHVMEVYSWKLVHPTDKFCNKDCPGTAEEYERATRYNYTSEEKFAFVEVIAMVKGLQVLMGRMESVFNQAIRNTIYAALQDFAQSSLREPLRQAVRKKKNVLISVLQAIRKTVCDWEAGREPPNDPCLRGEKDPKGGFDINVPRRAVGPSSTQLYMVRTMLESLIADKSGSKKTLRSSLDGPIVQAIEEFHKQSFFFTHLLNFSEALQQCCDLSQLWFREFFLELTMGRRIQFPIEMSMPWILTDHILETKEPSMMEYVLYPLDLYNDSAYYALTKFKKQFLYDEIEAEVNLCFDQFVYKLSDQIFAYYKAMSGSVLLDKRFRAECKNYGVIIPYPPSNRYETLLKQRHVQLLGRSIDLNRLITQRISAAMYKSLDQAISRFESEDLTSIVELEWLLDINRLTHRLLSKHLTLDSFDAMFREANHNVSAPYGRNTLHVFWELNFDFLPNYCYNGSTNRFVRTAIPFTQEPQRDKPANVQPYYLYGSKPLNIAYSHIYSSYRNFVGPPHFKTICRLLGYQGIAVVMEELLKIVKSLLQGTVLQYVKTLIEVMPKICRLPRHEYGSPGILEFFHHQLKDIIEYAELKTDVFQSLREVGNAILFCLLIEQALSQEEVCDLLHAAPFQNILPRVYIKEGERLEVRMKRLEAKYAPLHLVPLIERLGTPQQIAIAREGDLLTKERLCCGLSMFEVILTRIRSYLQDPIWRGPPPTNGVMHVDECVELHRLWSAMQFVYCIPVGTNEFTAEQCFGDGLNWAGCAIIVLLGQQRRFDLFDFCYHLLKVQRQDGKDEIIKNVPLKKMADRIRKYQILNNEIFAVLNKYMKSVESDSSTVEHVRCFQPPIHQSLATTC

Test [1] has as its target CYFIP2 (endogenous, Xenopus retinal ganglion cell axons) (Xenopus laevis (endogenous in Xenopus retinal cultures)) (UniProt Q6GQD1). The experiment in a line: proximity ligation; Duolink in situ PLA on fixed Xenopus retinal explant cultures, endogenous proteins; signal counted in the RGC axon shaft.
Test [2] shares this target. The experiment in a line: proximity ligation; Duolink in situ PLA on fixed Xenopus retinal explant cultures, endogenous proteins; signal counted in the RGC growth cone (central and peripheral domains).

Results are given in words; binding and its absence hold for the method and conditions named. Binding seen in cells or lysates may run through a third protein. Some results given as binding are weak or reduced against the parent protein; the word gives no strength.

B1: NCKAP1 (protein, UniProt Q640K3 1-1128)
chain: MSRSVLQPSQQKLAEKLTILNDRGVGMLTRLYNIKKACGDPKAKPSYLIDKNLESAVKFIVRKFPAVETRNNNQQLAQLQKEKSEILKNLALYYFTFVDVMEFKDHVCELLNTIDVCQVFLDITVNFDLTKNYLDLIVTYTTLMIMLSRIEERKAIIGLYNYSHEMTHGASDREYPRLGQMIVDYENPLKKMMEEFVPHSKSLSDALISLQMVYPRRNLSAEQWRNAQLLSLISAPSTMLNPAQSDTMPCEYLSLDTMEKWIILGFILCHGILNTDATSLNLWKLALQSSSCICLYRDEVLHFHKAAEDLFVNIRGYNKRINDIRECKENAVSHAGATHRERRKFLRSALKELATVLSDQPGLLGPKALFVFMALSFARDEIIWLLRHADNIPKKIADDFMDKHIAELIFYMEELRAHVRKYGPVMQRYYVQYLSGFDAVVLNELVQNLSVCPEDESIIMSSFVNTMTSLSVKQVEDGEVFDFRGMRLDWFRLQAYTSVSKASLSLTDHRELGKMMNTIIFHTKMVDSLVEMLVETSDLSIFCFYSRAFEKMFQQCLELPSQSRYSISFPLLCTHFMSCTHELCPEERHHIGDRSLSLCNMFLDEMAKQARNLITDICTEQCTLSDQLLPKHCAKTISQAVNKKSKKQTGKKGEPEREKPGVESMRKNRLVVTNLDKLHTALSELCFSINYAPNMVVWEHTFTPREYLTSHLEIRFTKSIVGMTMYNQVTQEIAKPSELLTSVRAYMTVLQSIENYVQIDITRVFNNVLLQQTQHLDSHGEPTITSLYTNWYLETLLRQVSNGHIAYFPAMKAFVNLPTENELTFNAEEYSDISEMRALSELLGPYGMKFLSESLMWHISSQVAELKKLVVENVEVLTQMRTSFDKPEQMAAFFKRLTSVDSVLKRMTIIGVILSFRSLAQEALKDVLSYHIPFLVSSVEDFKDHIPRETDMKVAMNVYELSSAAGLPCEIDPALVVALSSQKSETISPEEEYKIACLLMVFVAVSLPTLASNVMSQYSPAIEGHCNNIHCLAKAINQIAAALFTIHKGSIEDRLKEFLALASSSLLKIGQETDKTTTRNRESVYLLLDMIVQESPFLTMDLLESCFPYVLLRNAYHAVYKQSVTSSS
For B1, the binding entry in test [1] is listed as “binds weakly”; in test [2], “binds”.
